From PubChem BioAssay AID1347426 (Functional Genomics Laboratory (NCATS/FGL), 2020)
In all, about 31,000 sequences went through this assay and about 1,400 (4.5%) were called active.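 The calls were made as follows: active = median seed-adjusted z-score above 1 or below -1; inactive = the rest.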 This is one part of the list.

Assay: Novel Modifiers of Survival Motor Neuron (SMN) Protein: Gene Identification via Genome-wide siRNA Screen;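 also: luminescence tracks full-length SMN protein made from the SMN2 reporter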
Conditions: HEK293T SMN2-luciferase reporter, siRNA knockdown, 72 h; actives lie on both sides
In short: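 siRNA screen, 10418 genes ×3 siRNAs; 1 pmol/well, lipid reverse transfection into HEK293T SMN2-luc reporter line. 72 h, 37 °C, 5% CO2; ONE-Glo readout. Data: neg-ctrl normalized, log10, MAD; hit = MAD >1.0 or < -1.0.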
For CCAUGAAUCUCUAAAGGGATT against CADM3, the median seed-adjusted z-score was inactive: 0.
In the case of GGAGCUCCAAGACUCUAGATT against PPARGC1A, the median seed-adjusted z-score was inactive: -0.0953.
In the case of GCCUUUUCAAUCACAUAUATT against ATP6V0A4, the median seed-adjusted z-score was inactive: -0.141.
With CAGAAGUCCUUAUACUUCATT against TIAL1 the median seed-adjusted z-score was inactive: -0.985.
With CACCUUUUCUGGAUAGAGATT against DSC1 the median seed-adjusted z-score was inactive: -0.151.
For GGAAAAUUUACAGAAGUAATT against ZNF610, the median seed-adjusted z-score was inactive: 0.432.
In the case of GAUGCCUUCUAAGAAAUUUTT against SPIRE2, the median seed-adjusted z-score was inactive: 0.0604.
For CAGCUGAAAUCUCGAAAUATT against ARL5B, the median seed-adjusted z-score was inactive: -0.506.
For CAGAUAUCCUUUGCUUUAATT against VN1R5, the median seed-adjusted z-score was inactive: 0.177.
In the case of CCAGUGAACGGGAAUAGUATT against FOXC1, the median seed-adjusted z-score was inactive: -0.447.
With UAAGGACCGUGACUACAUUTT against DFNB31 the median seed-adjusted z-score was inactive: -0.233.
In the case of GUACCAGUCCAGUCCAUGATT against CDKN2D, the median seed-adjusted z-score was inactive: -0.455.
With CACCCACACCGGAUUGAAATT against BAG5 the median seed-adjusted z-score was inactive: -0.0153.
With CUCAUGUACUUGUACCUGUTT against NDUFB6 the median seed-adjusted z-score was inactive: -0.357.
In the case of CGACCACAUUCAUAUGUGATT against ABHD5, the median seed-adjusted z-score was inactive: 0.131.
In the case of GGAUGAUGCACAAAUCUUATT against SERPINB7, the median seed-adjusted z-score was inactive: 0.584.
In the case of UCAUGUGCCUGGAAAUUAATT against AIRE, the median seed-adjusted z-score was inactive: 0.308.
In the case of GCUGGAAAAGGUUAACGAATT against PKNOX1, the median seed-adjusted z-score was inactive: 0.68.
For GCACUGGAAGAGGCAAGUATT against ENPEP, the median seed-adjusted z-score was inactive: 0.666.
In the case of CCUUAUUCGACAUGAGAUATT against ZNF257, the median seed-adjusted z-score was inactive: 0.306.
For CACUCAACUCCAUCGAAUATT against CDC42BPB, the median seed-adjusted z-score was inactive: -0.556.
For CGCUGUGCAUGGACUACAATT against FZD8, the median seed-adjusted z-score was inactive: -0.177.
For CCAGUGGGUGUAUAACAUUTT against DCPS, the median seed-adjusted z-score was inactive: 0.669.
For GGAAGGCUAAAGACUUAUATT against ZMPSTE24, the median seed-adjusted z-score was inactive: -0.633.
In the case of GGAUGACAAGGAACACUCATT against CFB, the median seed-adjusted z-score was inactive: 0.132.
For CGAGACUUCUGACAUCUAUTT against DTX3, the median seed-adjusted z-score was inactive: 0.227.
For GCAUUUAGGUACCAGCUCATT against SLC39A2, the median seed-adjusted z-score was inactive: 0.0602.
In the case of GGUACUUUGUGAGCGAGGATT against RPS6KL1, the median seed-adjusted z-score was inactive: 0.0816.
In the case of CCACAUCUCCUAGCAGGUATT against RBM7, the median seed-adjusted z-score was inactive: 0.
With GUAUAUGGGCUGUUAUAAATT against IL1RAP the median seed-adjusted z-score was inactive: -0.23.
For GGACUUGCUGGAAAGCACATT against NCALD, the median seed-adjusted z-score was inactive: 0.
With AGUAUGAGGUGUCCCAUGATT against CPNE7 the median seed-adjusted z-score was inactive: 0.262.
With CGAUGUAUGACGAGGAAAATT against BTNL3 the median seed-adjusted z-score was inactive: 0.
In the case of CAAGGACACUUCAUCGUGATT against AVPR2, the median seed-adjusted z-score was inactive: -0.262.
For GGGUGACUCUCUGACUACATT against PLB1, the median seed-adjusted z-score was inactive: -0.118.
With GCAGAGCAGUUUGACGAAUTT against FH the median seed-adjusted z-score was inactive: 0.182.
In the case of CGAAUUCAGGUCAACAAUATT against TRERF1, the median seed-adjusted z-score was inactive: -0.0952.
With CGGAGAAGGUGUCAAAGCATT against GJA8 the median seed-adjusted z-score was inactive: 0.
For CUCUGGUACCGAUACCUGATT against XAB2, the median seed-adjusted z-score was inactive: 0.0628.
For CCACCACGGAUAUCAAAGATT against WDTC1, the median seed-adjusted z-score was inactive: -0.412.
In the case of CUGAUGUGGUCUCACCUAATT against C3AR1, the median seed-adjusted z-score was inactive: -0.916.
In the case of CCUCAUACAUCUAAAUUUATT against ANP32D, the median seed-adjusted z-score was inactive: -0.714.
With GGAUUGUUUGGAACCAGUUTT against NUP98 the median seed-adjusted z-score was inactive: 0.168.
In the case of GCGAAGAGCUGACCAAAUATT against NOD1, the median seed-adjusted z-score was inactive: 0.092.
For GGAGAUACCUGGUCUCUUUTT against ADAM21, the median seed-adjusted z-score was inactive: 0.
In the case of GUCUGGAACUUCAAGAUGATT against UPB1, the median seed-adjusted z-score was inactive: -0.0341.
In the case of GCCCAGGUGAGGUAUCUGATT against PNMA2, the median seed-adjusted z-score was inactive: 0.629.
For GCUUUAGCGAAAGACCUAATT against RPS6KA5, the median seed-adjusted z-score was inactive: -0.0588.
For CGAUAUGGAUUUACGGCUUTT against ABCG2, the median seed-adjusted z-score was inactive: 0.
In the case of UGUGGAACCUGUCAUCCUATT against ARVCF, the median seed-adjusted z-score was inactive: 0.372.
For GCUAAGAUGCGUUUUCACATT against GFRA3, the median seed-adjusted z-score was inactive: -0.326.
For GGGUAAAUCACAUCGUUAATT against REV1, the median seed-adjusted z-score was inactive: -0.294.
For GAACAUAUCAAGACCGGUUTT against MED30, the median seed-adjusted z-score was active: -2.06.
For CCUUUCCGAUCAUCACGAATT against KNG1, the median seed-adjusted z-score was inactive: 0.
For CGUGGACUCCCACUUCCAATT against OGG1, the median seed-adjusted z-score was inactive: -0.128.
In the case of GGAUAACAUUUGCUCCAUUTT against GNB1, the median seed-adjusted z-score was inactive: -0.166.
For CCCUUACCCAAAACGAGAATT against CDK8, the median seed-adjusted z-score was active: -1.47.
In the case of GGACUUGUAUAUGAGUAUATT against CCT6A, the median seed-adjusted z-score was inactive: -0.286.
With CAAAGUCGGAUAUAAAGUATT against ZNF645 the median seed-adjusted z-score was inactive: 0.079.
With GGUUCAUCAGUAAUCCUAATT against DNM1L the median seed-adjusted z-score was inactive: -0.153.
In the case of CCUCUGAUCUCACGCACUATT against ATP2B4, the median seed-adjusted z-score was inactive: 0.
In the case of GACCCUUACUGGACAGACATT against C1QTNF2, the median seed-adjusted z-score was inactive: 0.0697.
In the case of UCAUGAAUAUCGUAGAUGATT against ADAMTS14, the median seed-adjusted z-score was inactive: 0.209.
In the case of AGCUUUCAGAUAUUACCAATT against ZNF709, the median seed-adjusted z-score was inactive: 0.0129.
In the case of AGUGGAAACUUUUGUCGGATT against SOX2, the median seed-adjusted z-score was inactive: 0.0559.
In the case of AGACAGAGCCGAGAACCUATT against POFUT2, the median seed-adjusted z-score was inactive: -0.86.
For CGGAUUAUCUUCUAUCUAUTT against SLC6A14, the median seed-adjusted z-score was inactive: 0.
For CAACCAAAGUCGAAUAUGATT against PLK1, the median seed-adjusted z-score was active: -2.57.
In the case of CGGCAACGGAAGAAGAUGATT against PPP1R1A, the median seed-adjusted z-score was inactive: -0.529.
In the case of GACUGGUUUUCGGAGCAAATT against ACR, the median seed-adjusted z-score was inactive: -0.655.
With GAAGGUUUACAAGGACUUATT against KLK7 the median seed-adjusted z-score was inactive: 0.
With CCAACCAUGUGGUCACUCUTT against RXFP4 the median seed-adjusted z-score was inactive: -0.315.
For CUAUAUUGCAAUAUCCAAATT against COL21A1, the median seed-adjusted z-score was inactive: 0.296.
For GAACUGAUGAUUACUUAGATT against GDI2, the median seed-adjusted z-score was inactive: -0.161.
With GCAGAUAAGUGAACGAGAUTT against SAMHD1 the median seed-adjusted z-score was active: -1.33.
For GCAUGGAUCAUGAUAGACATT against LARS, the median seed-adjusted z-score was inactive: -0.788.
In the case of GGGACGAGAUGGUAAAGAATT against ATP2B2, the median seed-adjusted z-score was active: 1.37.
In the case of CCUGGGUCGUUAGAGGACATT against MMP25, the median seed-adjusted z-score was inactive: 0.
For CCAUGCUGGAGAUCAAGAATT against PRKAG3, the median seed-adjusted z-score was active: -1.03.
With GCAUUACGGAAGAAGCUUATT against IPMK the median seed-adjusted z-score was inactive: -0.00138.
For GAACCUCAGUGUCCGUGUATT against TRIP10, the median seed-adjusted z-score was inactive: -0.261.
In the case of GGAAUGCGCUAUAAACGAATT against INPP5F, the median seed-adjusted z-score was inactive: 0.118.
With GAAUGGGACAGAGACCAAATT against NSUN6 the median seed-adjusted z-score was inactive: 0.428.
With GUUGGAUCUUUAUCUGAUATT against ANAPC7 the median seed-adjusted z-score was inactive: -0.263.
For ACCGUUCCCUGUGGACACATT against TRIM15, the median seed-adjusted z-score was inactive: 0.292.
For GAGGAUAUCCCAUAUUUUATT against SERGEF, the median seed-adjusted z-score was inactive: -0.308.
In the case of GGCUAGUACUGACAGAUGATT against CREB3, the median seed-adjusted z-score was inactive: 0.0509.
For GCGUAUUCCUGGGUUCAGATT against NR1D2, the median seed-adjusted z-score was inactive: 0.0523.
In the case of CGGACAUUCGUGCAAAGAATT against PRPF6, the median seed-adjusted z-score was active: -1.06.
For GGAACUUCCUGAGAACAUUTT against MAP3K8, the median seed-adjusted z-score was inactive: -0.533.
For GAAACUGUCACAUACCAGATT against USP45, the median seed-adjusted z-score was inactive: -0.203.
For GGACAGUCAUUGUAACUAUTT against GPR19, the median seed-adjusted z-score was inactive: 0.157.
With CCUGAACGAUAAGAAGUCATT against GABRB2 the median seed-adjusted z-score was inactive: 0.288.
With CCUUCGAGCUUGAUGGUUUTT against CYP26B1 the median seed-adjusted z-score was inactive: -0.213.
For AGAGGUCCUUCAAAACAGATT against ENTPD6, the median seed-adjusted z-score was inactive: 0.438.
In the case of UCCCGGGAAUUAAAACUUATT against EPHA6, the median seed-adjusted z-score was inactive: 0.0445.
In the case of GCAAGAUUGUCGCAAAUUUTT against ARPC1A, the median seed-adjusted z-score was inactive: -0.433.
With CCAUUGUCACGGGCUUGUATT against ENPP3 the median seed-adjusted z-score was inactive: 0.66.
For CGACAAUUAUGAUGCAGAATT against ADPRHL1, the median seed-adjusted z-score was inactive: 0.
In the case of GGUAUACACUGAAUAUCCUTT against LCP1, the median seed-adjusted z-score was inactive: -0.386.
In the case of CACUUGAGGAGUUACUGAATT against TADA3L, the median seed-adjusted z-score was inactive: 0.00625.
In the case of GCUGUACACCGGCAUCGUATT against SLC5A5, the median seed-adjusted z-score was active: 1.01.
With CAGUUUAUCUCAGACAUCUTT against CD9 the median seed-adjusted z-score was active: -1.02.
For GGACAGAGUUAGAGAUUGATT against PARP9, the median seed-adjusted z-score was inactive: -0.526.
For CAAGAAUGUUACUAACAAUTT against TPM4, the median seed-adjusted z-score was inactive: -0.407.
With CAGCAAUUCGUGGAGCUCATT against STX4 the median seed-adjusted z-score was inactive: 0.759.
With ACGUGGAGCUCUUAGACAATT against AP1S1 the median seed-adjusted z-score was active: -1.04.
With CGGCCGAGUUUGUCCCUUATT against MPP2 the median seed-adjusted z-score was inactive: 0.0496.
